# Reference: patent US11446353B2, “Compositions and methods for the treatment of fungal infections” (priority 2014, dated 2022)
# Test system: Coccidioides posadasii Δcts2/Δard1/Δcts3
compound,measurement,value
CN[C@@H]1C[C@H]2O[C@@](C)([C@@H]1OC)n1c3ccccc3c3c4c(c5c6ccccc6n2c5c31)C(=O)NC4 [staurosporine],IC50 values over the course of the experiment,remained generally consistent
